From publication PMC7368280
These are yes or no findings as the source states them, for the method shown. In cells and extracts the contact can be indirect. Here binding means that the protein was enriched with, or labelled near, the bait; the list need not be complete. For some of these results: A no says only that the protein was not detected with the bait. Tags and fused reporters may be left off the sequences shown.

Chains of the proteins cited; added tags and fusions are not shown.
UniProt O22467: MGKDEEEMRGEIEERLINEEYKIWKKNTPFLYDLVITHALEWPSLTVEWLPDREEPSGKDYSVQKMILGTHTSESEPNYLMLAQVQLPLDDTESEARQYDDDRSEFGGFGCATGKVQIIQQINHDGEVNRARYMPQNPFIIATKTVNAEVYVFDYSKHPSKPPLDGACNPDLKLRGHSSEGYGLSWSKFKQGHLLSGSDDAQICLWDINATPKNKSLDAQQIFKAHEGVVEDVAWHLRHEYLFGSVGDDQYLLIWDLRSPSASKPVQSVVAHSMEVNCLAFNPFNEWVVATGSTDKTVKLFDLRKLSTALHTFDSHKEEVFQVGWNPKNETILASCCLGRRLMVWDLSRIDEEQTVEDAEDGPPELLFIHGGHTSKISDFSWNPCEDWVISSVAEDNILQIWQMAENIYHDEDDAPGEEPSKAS

Assays:
[1] = target: T1, ICU11-3xHA (gICU11-HA in icu11-3) (Arabidopsis) (UniProt Q3ED68); assay: affinity purification with mass spectrometry; coIP-MS with 3xHA-tagged ICU11 as bait from Arabidopsis plants (gICU11-HA icu11-3), control icu11-3; two independent experiments; procedure in SI Appendix
T1 sequence: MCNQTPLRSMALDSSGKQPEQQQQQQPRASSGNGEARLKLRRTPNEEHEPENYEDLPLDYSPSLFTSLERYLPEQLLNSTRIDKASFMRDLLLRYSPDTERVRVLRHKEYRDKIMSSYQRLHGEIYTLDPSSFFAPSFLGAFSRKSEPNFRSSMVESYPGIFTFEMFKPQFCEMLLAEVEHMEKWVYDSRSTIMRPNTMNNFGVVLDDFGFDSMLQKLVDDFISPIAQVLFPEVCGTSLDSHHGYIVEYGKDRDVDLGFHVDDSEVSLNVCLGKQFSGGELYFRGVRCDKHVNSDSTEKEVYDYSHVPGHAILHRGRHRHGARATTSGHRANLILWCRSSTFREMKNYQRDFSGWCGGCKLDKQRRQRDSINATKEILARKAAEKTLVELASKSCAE

[2] = target: T2, SWN-GFP (gSWN-GFP) (Arabidopsis) (UniProt Q9ZSM8); assay: affinity purification with mass spectrometry; coIP-MS with GFP-tagged baits from Arabidopsis plants (gICU11-GFP icu11-3; 35S:GFP-CLF clf-50; gSWN-GFP), control 35S::GFP; two independent experiments; procedure in SI Appendix
T2 sequence: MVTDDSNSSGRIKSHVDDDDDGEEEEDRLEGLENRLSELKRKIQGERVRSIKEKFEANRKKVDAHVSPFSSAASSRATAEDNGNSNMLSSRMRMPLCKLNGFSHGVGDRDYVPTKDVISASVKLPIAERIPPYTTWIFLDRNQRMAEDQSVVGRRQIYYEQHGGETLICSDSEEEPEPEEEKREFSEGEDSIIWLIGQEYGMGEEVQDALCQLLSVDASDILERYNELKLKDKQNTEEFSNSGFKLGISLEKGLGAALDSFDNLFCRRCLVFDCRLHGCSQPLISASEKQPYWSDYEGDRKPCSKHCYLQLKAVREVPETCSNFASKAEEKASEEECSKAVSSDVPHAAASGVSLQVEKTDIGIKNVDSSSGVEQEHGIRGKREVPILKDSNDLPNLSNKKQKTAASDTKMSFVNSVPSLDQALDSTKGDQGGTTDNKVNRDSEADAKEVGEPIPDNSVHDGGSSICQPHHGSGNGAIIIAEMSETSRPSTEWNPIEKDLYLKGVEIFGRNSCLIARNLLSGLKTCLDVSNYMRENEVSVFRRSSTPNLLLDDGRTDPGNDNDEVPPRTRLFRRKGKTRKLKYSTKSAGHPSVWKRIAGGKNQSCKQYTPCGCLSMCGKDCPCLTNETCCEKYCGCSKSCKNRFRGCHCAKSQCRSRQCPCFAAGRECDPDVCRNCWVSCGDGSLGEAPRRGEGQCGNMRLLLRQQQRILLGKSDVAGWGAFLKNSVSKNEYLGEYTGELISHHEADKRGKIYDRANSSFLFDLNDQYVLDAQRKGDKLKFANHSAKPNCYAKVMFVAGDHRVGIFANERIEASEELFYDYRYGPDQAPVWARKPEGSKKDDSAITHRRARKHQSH

[3] = target: T3, GFP-CLF (35S:GFP-CLF in clf-50) (Arabidopsis) (UniProt P93831); assay: as above
T3 sequence: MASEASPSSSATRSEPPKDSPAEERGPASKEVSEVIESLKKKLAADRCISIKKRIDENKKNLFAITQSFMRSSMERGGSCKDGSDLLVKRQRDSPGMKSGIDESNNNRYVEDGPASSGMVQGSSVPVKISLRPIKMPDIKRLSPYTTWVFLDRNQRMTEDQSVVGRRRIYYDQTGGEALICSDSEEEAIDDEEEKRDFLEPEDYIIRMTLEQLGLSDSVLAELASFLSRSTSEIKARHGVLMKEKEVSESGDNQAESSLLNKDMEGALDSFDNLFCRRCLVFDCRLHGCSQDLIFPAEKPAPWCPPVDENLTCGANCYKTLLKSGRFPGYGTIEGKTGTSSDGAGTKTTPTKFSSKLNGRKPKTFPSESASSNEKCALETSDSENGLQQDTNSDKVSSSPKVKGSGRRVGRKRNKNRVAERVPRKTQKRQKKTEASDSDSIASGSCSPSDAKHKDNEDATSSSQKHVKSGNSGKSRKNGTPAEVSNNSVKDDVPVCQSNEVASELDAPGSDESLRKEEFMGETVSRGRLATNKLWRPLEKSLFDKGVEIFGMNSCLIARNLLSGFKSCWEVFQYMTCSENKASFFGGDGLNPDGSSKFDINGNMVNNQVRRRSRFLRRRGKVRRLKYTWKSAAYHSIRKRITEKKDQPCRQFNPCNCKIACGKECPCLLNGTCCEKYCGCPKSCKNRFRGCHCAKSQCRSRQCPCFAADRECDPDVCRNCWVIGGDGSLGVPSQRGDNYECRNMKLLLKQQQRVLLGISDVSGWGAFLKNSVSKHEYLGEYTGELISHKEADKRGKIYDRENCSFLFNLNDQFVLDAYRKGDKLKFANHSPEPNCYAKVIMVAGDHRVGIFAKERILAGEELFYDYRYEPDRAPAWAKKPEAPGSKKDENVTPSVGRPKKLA

[4] = target: T4, ICU11-eGFP (gICU11-GFP in icu11-3) (Arabidopsis) (UniProt Q3ED68); assay: as above
T4 sequence: T1 sequence

[5] = target: T5, EMF1-3XFLAG (in emf1) (Arabidopsis) (UniProt Q9LYD9); assay: affinity purification with mass spectrometry; coIP-MS with EMF1-3XFLAG as bait from Arabidopsis plants (EMF1-3XFLAG emf1), control Col-0; two independent experiments; procedure in SI Appendix
T5 sequence: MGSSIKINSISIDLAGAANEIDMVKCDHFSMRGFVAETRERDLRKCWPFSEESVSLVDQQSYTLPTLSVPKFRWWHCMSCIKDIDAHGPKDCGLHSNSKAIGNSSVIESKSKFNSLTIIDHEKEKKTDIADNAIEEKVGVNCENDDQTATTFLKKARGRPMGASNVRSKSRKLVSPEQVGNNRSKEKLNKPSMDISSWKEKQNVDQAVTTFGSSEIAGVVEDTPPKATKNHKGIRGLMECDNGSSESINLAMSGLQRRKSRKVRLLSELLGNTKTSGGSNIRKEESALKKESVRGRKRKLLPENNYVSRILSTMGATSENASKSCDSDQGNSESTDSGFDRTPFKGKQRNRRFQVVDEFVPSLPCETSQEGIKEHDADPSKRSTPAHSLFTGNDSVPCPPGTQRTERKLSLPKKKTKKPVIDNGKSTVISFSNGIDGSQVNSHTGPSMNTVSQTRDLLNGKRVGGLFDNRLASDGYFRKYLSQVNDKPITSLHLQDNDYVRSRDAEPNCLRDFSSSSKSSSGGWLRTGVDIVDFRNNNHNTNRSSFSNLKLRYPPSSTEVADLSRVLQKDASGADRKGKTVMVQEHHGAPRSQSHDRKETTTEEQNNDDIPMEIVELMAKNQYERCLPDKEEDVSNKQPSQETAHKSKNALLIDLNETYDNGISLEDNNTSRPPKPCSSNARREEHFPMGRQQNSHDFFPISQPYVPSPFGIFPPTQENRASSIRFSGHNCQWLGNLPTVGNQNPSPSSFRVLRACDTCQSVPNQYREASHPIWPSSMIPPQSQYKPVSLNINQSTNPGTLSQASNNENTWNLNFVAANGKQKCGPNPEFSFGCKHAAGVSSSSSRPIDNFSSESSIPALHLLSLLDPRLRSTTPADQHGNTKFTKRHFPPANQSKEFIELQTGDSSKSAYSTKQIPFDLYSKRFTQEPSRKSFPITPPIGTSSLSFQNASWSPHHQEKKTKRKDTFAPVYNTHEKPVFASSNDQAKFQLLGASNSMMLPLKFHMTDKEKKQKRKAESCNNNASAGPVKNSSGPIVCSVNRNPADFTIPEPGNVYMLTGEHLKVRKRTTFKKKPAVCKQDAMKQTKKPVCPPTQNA

Row | Sequence | binding [1] | binding [2] | binding [3] | binding [4] | binding [5]
1 | MULTICOPY SUPPRESSOR OF IRA1 (from UniProt O22467 1-424) | binds | binds | binds | binds | binds
2 | VERNALIZATION …3 (from UniProt Q9FIE3 1-620) | no binding | – | – | no binding | –
